Results as given in PubChem BioAssay AID196 (DTP/NCI, 2004).
Toxic doses and inconclusive results are not listed.

Test system: BDF1 mice, intracerebral B16 melanoma, median survival T/C
Assay: NCI In Vivo Anticancer Drug Screen. Data for tumor model B16 Melanoma (intracerebral) in B6D2F1 (BDF1) mice
Conditions: endpoint: median survival time, schedule: Q01DX005 (ip), vehicle: Klucel (hydroxypropylcellulose) (HPC), higher = longer survival
Procedure: The antitumor activity of compounds was measured in mice bearing transplantable tumors. Survival or tumor size were measured and the results are expressed as the measurement made in the treated group (T) divided by the measurement made in the vehicle treated control group (C). The tumor model used in this assay is B16 Melanoma (intracerebral) in B6D2F1 (BDF1) mice

SMILES: COc1cc2c(c(OC)c1OC)-c1ccc(OC)c(=O)cc1[C@@H](N)CC2
- T/C (dose: 4.0 mg/kg/injection): 95 % of control
- T/C (dose: 8.0 mg/kg/injection): 95 % of control
